Reference: patent publication US20210023083A1
No constants are given. Whether binding was seen depends on the method and setting. For some of these results: In cells and extracts the contact can be indirect. Some results given as binding are weak or reduced against the parent protein; the word gives no strength.

The chains behind the UniProt entries cited, without tags or fusion partners. Residues count along the entry.
UniProt Q9HB71, residues 2-228: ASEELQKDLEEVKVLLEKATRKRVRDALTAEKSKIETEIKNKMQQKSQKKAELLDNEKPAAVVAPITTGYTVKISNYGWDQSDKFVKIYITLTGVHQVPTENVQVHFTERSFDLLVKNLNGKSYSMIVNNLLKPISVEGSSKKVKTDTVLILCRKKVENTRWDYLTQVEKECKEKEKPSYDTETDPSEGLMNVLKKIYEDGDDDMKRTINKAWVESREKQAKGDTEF
UniProt O60437: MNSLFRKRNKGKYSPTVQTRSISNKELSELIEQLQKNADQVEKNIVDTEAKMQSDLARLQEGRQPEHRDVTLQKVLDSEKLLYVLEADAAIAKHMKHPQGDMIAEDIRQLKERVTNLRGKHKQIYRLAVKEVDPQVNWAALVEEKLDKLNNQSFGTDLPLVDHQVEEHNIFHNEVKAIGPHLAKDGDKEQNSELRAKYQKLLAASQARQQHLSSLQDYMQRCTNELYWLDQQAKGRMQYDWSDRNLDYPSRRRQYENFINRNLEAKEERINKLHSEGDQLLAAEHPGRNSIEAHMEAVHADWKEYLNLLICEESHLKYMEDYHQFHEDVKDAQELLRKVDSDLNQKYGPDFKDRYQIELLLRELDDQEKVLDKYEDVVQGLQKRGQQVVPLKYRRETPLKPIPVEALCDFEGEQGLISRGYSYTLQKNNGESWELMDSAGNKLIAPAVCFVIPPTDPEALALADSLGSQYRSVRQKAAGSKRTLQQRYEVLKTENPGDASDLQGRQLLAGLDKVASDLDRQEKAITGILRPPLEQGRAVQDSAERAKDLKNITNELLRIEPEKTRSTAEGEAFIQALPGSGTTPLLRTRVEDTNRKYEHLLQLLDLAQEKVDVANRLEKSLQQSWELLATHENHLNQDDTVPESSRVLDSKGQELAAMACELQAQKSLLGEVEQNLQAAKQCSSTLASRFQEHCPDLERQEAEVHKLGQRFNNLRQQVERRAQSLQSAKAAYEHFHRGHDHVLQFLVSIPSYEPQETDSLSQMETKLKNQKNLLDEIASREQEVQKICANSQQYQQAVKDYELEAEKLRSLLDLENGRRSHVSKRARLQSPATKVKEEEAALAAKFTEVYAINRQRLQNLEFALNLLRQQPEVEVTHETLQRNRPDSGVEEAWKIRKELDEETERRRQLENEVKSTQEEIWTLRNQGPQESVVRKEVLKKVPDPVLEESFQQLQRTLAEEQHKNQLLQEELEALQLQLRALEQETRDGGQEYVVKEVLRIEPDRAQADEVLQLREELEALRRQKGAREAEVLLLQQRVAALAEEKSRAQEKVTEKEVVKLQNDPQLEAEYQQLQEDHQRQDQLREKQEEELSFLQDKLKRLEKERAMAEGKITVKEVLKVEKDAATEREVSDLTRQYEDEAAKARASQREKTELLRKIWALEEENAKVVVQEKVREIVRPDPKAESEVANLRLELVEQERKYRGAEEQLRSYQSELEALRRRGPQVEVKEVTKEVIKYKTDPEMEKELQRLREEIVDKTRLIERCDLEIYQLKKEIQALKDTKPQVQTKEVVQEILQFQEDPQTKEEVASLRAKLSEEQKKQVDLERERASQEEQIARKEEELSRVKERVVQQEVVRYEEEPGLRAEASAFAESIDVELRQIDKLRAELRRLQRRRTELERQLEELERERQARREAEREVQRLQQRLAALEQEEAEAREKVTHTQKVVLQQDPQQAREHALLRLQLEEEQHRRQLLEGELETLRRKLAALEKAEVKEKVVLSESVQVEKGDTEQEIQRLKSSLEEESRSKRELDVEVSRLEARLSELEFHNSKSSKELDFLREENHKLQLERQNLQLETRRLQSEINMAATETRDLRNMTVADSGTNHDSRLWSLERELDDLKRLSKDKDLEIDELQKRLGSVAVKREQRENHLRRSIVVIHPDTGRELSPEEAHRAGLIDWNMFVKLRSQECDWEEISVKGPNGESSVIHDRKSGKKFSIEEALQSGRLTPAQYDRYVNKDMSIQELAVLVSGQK
UniProt Q92817: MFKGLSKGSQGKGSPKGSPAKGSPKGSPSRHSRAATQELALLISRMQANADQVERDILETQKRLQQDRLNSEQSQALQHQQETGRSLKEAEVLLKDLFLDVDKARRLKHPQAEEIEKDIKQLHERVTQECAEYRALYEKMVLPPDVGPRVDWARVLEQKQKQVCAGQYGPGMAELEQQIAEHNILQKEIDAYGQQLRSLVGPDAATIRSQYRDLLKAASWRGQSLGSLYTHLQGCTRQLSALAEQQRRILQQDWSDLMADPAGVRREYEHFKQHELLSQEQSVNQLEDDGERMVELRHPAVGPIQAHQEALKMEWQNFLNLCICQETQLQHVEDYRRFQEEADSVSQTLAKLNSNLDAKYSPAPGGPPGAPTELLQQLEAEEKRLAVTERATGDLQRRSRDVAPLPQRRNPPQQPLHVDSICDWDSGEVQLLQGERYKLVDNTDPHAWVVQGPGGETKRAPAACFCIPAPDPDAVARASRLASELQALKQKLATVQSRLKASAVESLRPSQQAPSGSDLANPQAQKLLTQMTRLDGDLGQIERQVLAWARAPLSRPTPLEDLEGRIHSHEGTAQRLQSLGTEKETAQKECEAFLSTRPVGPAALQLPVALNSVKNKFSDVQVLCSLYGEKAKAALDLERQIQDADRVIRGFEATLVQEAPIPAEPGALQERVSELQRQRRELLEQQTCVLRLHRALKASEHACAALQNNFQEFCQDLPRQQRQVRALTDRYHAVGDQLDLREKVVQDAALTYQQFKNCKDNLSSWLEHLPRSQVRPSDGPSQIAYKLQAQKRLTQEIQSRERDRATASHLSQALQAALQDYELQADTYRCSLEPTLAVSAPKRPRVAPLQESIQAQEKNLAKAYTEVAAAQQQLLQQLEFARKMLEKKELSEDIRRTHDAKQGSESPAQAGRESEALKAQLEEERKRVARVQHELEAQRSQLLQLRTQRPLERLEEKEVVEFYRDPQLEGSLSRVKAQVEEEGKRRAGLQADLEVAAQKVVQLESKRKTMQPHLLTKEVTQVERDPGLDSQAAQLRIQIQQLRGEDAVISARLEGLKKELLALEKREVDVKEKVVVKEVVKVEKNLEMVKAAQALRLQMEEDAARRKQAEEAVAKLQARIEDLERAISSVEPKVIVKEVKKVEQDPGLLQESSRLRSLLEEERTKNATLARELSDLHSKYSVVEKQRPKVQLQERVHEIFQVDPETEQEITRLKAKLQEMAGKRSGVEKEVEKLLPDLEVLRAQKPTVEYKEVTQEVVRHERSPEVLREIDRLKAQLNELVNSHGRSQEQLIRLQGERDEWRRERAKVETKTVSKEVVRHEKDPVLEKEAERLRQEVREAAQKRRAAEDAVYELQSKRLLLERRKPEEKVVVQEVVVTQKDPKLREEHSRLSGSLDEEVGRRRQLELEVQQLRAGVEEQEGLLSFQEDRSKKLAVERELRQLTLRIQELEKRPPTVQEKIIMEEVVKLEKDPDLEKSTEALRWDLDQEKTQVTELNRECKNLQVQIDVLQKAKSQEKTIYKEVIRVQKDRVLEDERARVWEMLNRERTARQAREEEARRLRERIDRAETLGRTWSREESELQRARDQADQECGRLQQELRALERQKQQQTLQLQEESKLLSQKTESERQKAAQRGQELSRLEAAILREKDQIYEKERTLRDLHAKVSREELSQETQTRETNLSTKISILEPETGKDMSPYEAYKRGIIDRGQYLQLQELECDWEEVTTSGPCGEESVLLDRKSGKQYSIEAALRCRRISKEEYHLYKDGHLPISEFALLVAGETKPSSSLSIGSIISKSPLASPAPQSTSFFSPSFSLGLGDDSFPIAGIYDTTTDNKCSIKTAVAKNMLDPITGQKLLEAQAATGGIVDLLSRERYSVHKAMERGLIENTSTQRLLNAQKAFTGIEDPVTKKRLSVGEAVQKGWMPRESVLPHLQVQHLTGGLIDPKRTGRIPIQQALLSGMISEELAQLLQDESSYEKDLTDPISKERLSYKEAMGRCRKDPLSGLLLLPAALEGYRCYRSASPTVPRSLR
UniProt Q08AI8: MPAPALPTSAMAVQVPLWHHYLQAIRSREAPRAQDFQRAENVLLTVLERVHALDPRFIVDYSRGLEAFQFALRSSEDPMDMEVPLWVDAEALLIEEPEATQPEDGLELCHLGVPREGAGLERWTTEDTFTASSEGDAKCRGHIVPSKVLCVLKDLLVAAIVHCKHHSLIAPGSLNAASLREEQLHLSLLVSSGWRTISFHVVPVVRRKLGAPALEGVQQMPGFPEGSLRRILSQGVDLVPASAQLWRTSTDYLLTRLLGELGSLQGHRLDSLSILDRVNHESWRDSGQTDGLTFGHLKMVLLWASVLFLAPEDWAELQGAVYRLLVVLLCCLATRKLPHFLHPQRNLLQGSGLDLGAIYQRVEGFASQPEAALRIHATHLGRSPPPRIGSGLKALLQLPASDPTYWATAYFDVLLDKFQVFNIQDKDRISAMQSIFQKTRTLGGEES

Assays:
[1] = molecular target: calcyclin-binding protein (CacyBP) (human) (UniProt Q9HB71); experiment: BioID in organotypic human epidermal tissue
periplakin (human) = periplakin (human) (UniProt O60437); experiment: PLA of endogenous periplakin and HA in skin organoids expressing HA-MAB21L4 (FIG. 9c,d)
[2] = molecular target: calcyclin-binding protein (CacyBP) (human) (UniProt Q9HB71); experiment: PLA (HA / CacyBP) and anti-FLAG co-immunoprecipitation with western blot, human skin organoids
envoplakin (human) = envoplakin (human) (UniProt Q92817); experiment: PLA of endogenous envoplakin and HA in skin organoids expressing HA-MAB21L4 (FIG. 9a,b)

binding [1]	binding (periplakin (human))	binding [2]	binding (envoplakin (human))	Substance
binds	–	–	–	3×HA-BASU-MAB21L4 fusion protein (from UniProt Q08AI8 1-447)
–	binds	binds	binds	FLAG-HA-6×HIS (FHH)-MAB21L4 (from UniProt Q08AI8 1-447)
